Results are given in words; binding and its absence hold for the method and conditions named. In cells and extracts the contact can be indirect. Some binding calls cover weakened binding; strength is not graded here. Tags and fused reporters may be left off the sequences shown.
Target: T1, Flag-CARP2 (human) (UniProt Q8WZ73)
T1 sequence: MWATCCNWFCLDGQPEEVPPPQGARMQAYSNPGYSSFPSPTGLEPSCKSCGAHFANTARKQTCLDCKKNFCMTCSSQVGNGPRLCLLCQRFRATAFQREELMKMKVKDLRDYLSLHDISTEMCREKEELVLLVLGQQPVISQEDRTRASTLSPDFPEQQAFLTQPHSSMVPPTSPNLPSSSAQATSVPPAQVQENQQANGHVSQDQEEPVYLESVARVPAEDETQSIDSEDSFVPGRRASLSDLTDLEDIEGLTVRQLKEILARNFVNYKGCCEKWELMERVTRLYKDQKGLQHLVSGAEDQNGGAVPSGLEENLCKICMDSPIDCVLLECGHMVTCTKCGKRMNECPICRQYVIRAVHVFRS
Assay: co-IP

binding: binds
B1: Golgin45-V5-6Xhis (protein, UniProt Q9H2G9 1-400)
chain: MTTKNLETKVTVTSSPIRGAGDGMETEEPPKSVEVTSGVQSRKHHSLQSPWKKAVPSESPGVLQLGKMLTEKAMEVKAVRILVPKAAITHDIPNKNTKVKSLGHHKGEFLGQSEGVIEPNKELSEVKNVLEKLKNSERRLLQDKEGLSNQLRVQTEVNRELKKLLVASVGDDLQYHFERLAREKNQLILENEALGRNTAQLSEQLERMSIQCDVWRSKFLASRVMADELTNSRAALQRQNRDAHGAIQDLLSEREQFRQEMIATQKLLEELLVSLQWGREQTYSPSVQPHSTAELALTNHKLAKAVNSHLLGNVGINNQKKIPSTVEFCSTPAEKMAETVLRILDPVTCKESSPDNPFFESSPTTLLATKKNIGRFHPYTRYENITFNCCNHCRGELIAL

From publication doi:10.1101/2022.04.05.487156
